Results on seven substances are retold here after publication PMC7545706.

Protein sequences, listed by entry. Tags and fused reporters are not part of them. Lines headed by an entry give the natural chain unless they say otherwise; changes in a name come on top.
UniProt P06788: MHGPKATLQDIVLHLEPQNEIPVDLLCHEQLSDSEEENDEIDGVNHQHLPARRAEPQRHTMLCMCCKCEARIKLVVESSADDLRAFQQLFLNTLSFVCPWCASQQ
UniProt Q16666: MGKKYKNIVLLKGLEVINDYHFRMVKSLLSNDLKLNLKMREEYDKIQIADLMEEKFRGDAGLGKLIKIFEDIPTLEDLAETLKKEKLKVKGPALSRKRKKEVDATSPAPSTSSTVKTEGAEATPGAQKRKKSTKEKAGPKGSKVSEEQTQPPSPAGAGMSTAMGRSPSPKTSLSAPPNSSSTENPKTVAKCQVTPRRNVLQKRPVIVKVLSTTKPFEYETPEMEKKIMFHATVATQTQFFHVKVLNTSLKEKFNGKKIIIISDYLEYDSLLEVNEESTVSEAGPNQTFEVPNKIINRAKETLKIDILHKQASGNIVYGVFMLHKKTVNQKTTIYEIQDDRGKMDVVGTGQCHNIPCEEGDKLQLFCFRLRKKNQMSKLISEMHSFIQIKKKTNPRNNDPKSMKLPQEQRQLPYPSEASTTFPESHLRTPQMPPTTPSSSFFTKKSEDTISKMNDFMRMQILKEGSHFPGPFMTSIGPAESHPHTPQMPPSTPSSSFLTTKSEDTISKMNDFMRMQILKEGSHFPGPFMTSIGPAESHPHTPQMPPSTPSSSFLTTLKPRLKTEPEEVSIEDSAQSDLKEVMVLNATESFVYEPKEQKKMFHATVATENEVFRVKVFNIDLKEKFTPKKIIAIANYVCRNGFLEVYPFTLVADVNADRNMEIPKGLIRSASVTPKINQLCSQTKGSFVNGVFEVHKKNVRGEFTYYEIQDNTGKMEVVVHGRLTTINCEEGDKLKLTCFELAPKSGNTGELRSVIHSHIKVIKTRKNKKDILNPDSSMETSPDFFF

For assay [1], the target named is Flag-HPV 18E7 (human papillomavirus type 18) (UniProt P06788). Description: co-IP; 293T cells cotransfected for 36 hr with tagged plasmids; NP-40 lysis buffer; immunoprecipitation with anti-FlagM2 beads, immunoblot.
Assay [2] has as its target T1, Flag-HPV 11E7 (human papillomavirus type 11) (UniProt P04020).
T1 sequence: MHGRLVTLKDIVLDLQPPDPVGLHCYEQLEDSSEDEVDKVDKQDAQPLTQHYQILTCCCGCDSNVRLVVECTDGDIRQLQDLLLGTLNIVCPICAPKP
Description: co-IP; HaCaT cells stably expressing Flag-HPV 11E7, transfected with poly(dA:dT) for the indicated times; NP-40 lysis buffer; immunoprecipitation with anti-FlagM2 beads, immunoblot. In general terms: Immunoblotting shows a protein as a band on a membrane.

For assay [3], the target named is HPV 18E7 (endogenous, HeLa) (human papillomavirus type 18 (endogenous in HeLa)) (UniProt P06788). Nature of the assay: co-IP; endogenous proteins of HeLa cells transfected with poly(dA:dT) for the indicated times; immunoprecipitation with IFI16, HPV 18E7, TRIM21 or IgG-conjugated magnetic beads, immunoblot.
For a further assay, the target named is Flag-IFI16 (human) (UniProt Q16666). Description: co-IP; 293T cells cotransfected for 36 hr with tagged plasmids; NP-40 lysis buffer; immunoprecipitation with anti-FlagM2 beads, immunoblot.

Results are given in words; binding and its absence hold for the method and conditions named. In cells and extracts the contact can be indirect. Some results given as binding are weak or reduced against the parent protein; the word gives no strength. For some assays here: Tags and fused reporters may be left off the sequences shown.

Consider Myc-IFI16 (from UniProt Q16666-1 1-785), for which the binding result in assay [1] is given as “binds”. Turning to “TRIM21 (endogenous, HaCaT) (from UniProt P19474-1 1-475)”, in assay [2], the binding entry is on record as “binds”.

As for “TRIM21 (endogenous, HeLa) (from UniProt P19474-1 1-475)”, in assay [3], the binding result is given as “binds”.

As for “IFI16 (endogenous, HeLa) (from UniProt Q16666-1 1-785)”, in assay [3], the binding entry is reported as “binds”.

For the substance “GFP-HPV 18E7 (from UniProt P06788 1-105)”, in the assay with Flag-IFI16 (human), the binding result was “binds”. On to “Myc-TRIM21 (from UniProt P19474-1 1-475)”, for which the binding result (in assay [1]; with Flag-IFI16 (human)) was “binds” throughout. Regarding “IFI16 (endogenous, HaCaT) (from UniProt Q16666-1 1-785)”, in assay [2], the binding result is listed as “binds”.
